Leishmania in macrophages: 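Cell assay of Leishmania donovani living inside macrophages; the read-out is not stated. Tested at 30 µM. Higher reads as stronger inhibition (inferred: compounds with an IC50 in retests scored well above the rest). About 69,000 compounds were tested under these conditions; 1.5% (about 1,000) showed 50% or more at least once.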
PfKRS1: 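Lysine-tRNA ligase, Plasmodium falciparum 3D7 (UniProt Q8IDJ8). Enzyme assay of the cytosolic lysyl-tRNA synthetase in 384-well plates, read by luminescence. Compounds at 30 µM. Higher reads as stronger inhibition, judged from the few compounds that gave an IC50. About 69,000 compounds were tested under these conditions; 0.071% (about 49) showed 50% or more at least once.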
LiHisRS: 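Enzyme assay of histidyl-tRNA synthetase; the read-out is not stated. Target: Histidine-tRNA ligase, Leishmania infantum (UniProt A4I591). Compounds at 30 µM. Direction is inferred from retests: higher values go with stronger inhibition. The assay is labelled LdHisRS but filed under L. infantum. About 69,000 compounds were tested under these conditions; 0.6% (about 410) showed 50% or more at least once.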

The chains behind the UniProt entries cited, without tags or fusion partners. Residues count along the entry.
UniProt Q8IDJ8, 1-583: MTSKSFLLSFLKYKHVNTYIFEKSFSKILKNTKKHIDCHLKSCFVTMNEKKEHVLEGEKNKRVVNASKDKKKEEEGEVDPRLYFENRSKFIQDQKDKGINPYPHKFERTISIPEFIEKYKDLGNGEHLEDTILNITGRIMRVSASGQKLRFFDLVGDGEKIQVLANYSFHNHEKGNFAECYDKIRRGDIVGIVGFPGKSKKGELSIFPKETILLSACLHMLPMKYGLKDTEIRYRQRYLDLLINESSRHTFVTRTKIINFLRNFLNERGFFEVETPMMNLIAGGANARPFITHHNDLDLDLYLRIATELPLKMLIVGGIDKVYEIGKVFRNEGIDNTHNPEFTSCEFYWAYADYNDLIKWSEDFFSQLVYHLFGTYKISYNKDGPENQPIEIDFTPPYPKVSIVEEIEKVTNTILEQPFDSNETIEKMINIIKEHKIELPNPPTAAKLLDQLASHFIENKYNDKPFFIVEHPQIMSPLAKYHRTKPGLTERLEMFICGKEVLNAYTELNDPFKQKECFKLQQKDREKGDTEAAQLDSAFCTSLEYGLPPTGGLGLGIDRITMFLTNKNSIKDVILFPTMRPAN
UniProt A4I591, 1-473: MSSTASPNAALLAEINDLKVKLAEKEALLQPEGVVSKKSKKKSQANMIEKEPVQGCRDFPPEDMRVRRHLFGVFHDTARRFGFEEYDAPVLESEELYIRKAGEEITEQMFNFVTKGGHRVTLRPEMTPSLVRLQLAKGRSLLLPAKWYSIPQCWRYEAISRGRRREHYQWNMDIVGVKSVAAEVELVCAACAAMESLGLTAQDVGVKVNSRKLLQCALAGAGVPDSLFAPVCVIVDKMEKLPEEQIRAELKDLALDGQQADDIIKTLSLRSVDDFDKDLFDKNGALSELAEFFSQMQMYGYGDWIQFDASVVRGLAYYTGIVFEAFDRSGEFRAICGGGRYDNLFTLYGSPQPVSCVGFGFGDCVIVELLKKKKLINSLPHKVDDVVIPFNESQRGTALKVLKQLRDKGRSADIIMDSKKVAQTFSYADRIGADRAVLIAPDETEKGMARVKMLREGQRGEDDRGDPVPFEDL

Results are given as percent effect. The record does not define 0% and 100%; most values in the screen are far below 50% and negative numbers occur (in some assays of this library far below -100). Compounds were drawn at random from those tested, without regard to their results. Two or more numbers in one place are separate tests of the same structure; such repeats can differ widely. A dash means the value is not listed here; it may have been measured.

COCCN1CC(C(=O)N(C)Cc2csc(C)n2)CC1=O (stereo not drawn) gave Leishmania in macrophages: -3.6%; PfKRS1: -1.029%; LiHisRS: -10.67%. CC(C)(C)c1ncc(CNCC2CCCn3ccnc32)s1 (stereo not drawn) gave Leishmania in macrophages: 2.791%; PfKRS1: -0.2719%; LiHisRS: 10.53%. For Fc1cccc(O[C@@H]2C[C@H]3CN(Cc4ccccn4)CCN3C2)c1 the result was PfKRS1: -2.304%; LiHisRS: 1.01%. N#Cc1cccc(CN2CCN(C(=O)C3CCC3)[C@@H]3CS(=O)(=O)C[C@@H]32)c1 read PfKRS1: 4.069%; LiHisRS: 23.29%. Result for Cn1nccc1CCC(=O)N1CCOC(c2cnccn2)C1 (stereo not drawn) was Leishmania in macrophages: 16.37% and 18.93%; PfKRS1: 0.6989%; LiHisRS: -3.158%.

For CC(=O)N1CC2(CCN(C(=O)c3ccoc3)C2)C1 the result was Leishmania in macrophages: 18.7%; PfKRS1: 5.428%; LiHisRS: 31.43%. Result for CC(C)c1nnc(CN2CCc3ccc(S(N)(=O)=O)cc32)o1 was Leishmania in macrophages: 11.78%; PfKRS1: -3.243%; LiHisRS: 8.29%. With [H][C@@]12OCCN(C(=O)C3CCOCC3)[C@@]1([H])CC[C@H]2OCC(=O)N(C)C the screen gave Leishmania in macrophages: -9.611%. Result for Cc1nnc(Nc2cccc(C3CCCN(Cc4ncc[nH]4)C3)n2)s1 (stereo not drawn) was Leishmania in macrophages: 11.26%; PfKRS1: -4.057%; LiHisRS: 7.586%. For CCOCCC1(CNC(=O)c2ccncc2)CCC1 the result was Leishmania in macrophages: -12.12%; PfKRS1: 4.977%; LiHisRS: 9.735%.

CN(C(=O)c1ccnn1C)[C@@H]1CCC[C@@H](Oc2ccccc2)[C@@H]1O gave Leishmania in macrophages: 5.603% and 24.42%; PfKRS1: 0.4992%; LiHisRS: 3.158%. With Cc1nccn1CCC1CCCCN1Cc1cnc(N(C)C)nc1 (stereo not drawn) the screen gave Leishmania in macrophages: 17.97%; PfKRS1: 2.469%; LiHisRS: 3.125%. [H][C@@]12CS(=O)(=O)C[C@]1([H])N(Cc1nccs1)CCN2CCOC gave Leishmania in macrophages: -6.4%. Result for O=C(N[C@@H]1CCCNC1)C1(Oc2ccc(Cl)cc2)CCNCC1 was Leishmania in macrophages: 12.74%; PfKRS1: 0.5326%; LiHisRS: -1.408%. Result for CC(C)=CCN1C(=O)[C@H]2CC[C@@H]1CN(C(=O)CCc1n[nH]c(C)c1C)C2 was PfKRS1: -4.701%; LiHisRS: -5.128%.

Result for CN1C[C@H]2CNC[C@@]2(C(=O)N2CCN(c3ncccc3C#N)CC2)C1 was PfKRS1: 4.211%; LiHisRS: 9.836%. With O=C(NCCN1CCOCC1)c1ccn(-c2ccccc2F)n1 the screen gave Leishmania in macrophages: 7.777%; PfKRS1: 0.6445%; LiHisRS: 8.333%. Cc1ncsc1CCN(C)Cc1cc2n(n1)CCN(Cc1ccco1)C2 gave Leishmania in macrophages: 26.16%; PfKRS1: 5.4%; LiHisRS: 25.25%. With CC(C)(O)CN1CCN(C(=O)c2cccn2Cc2cccnc2)CC1 the screen gave Leishmania in macrophages: 11.91%; PfKRS1: 6.071%; LiHisRS: 9.91%. With Cc1cc(C)nc(Nc2nccnc2C2CCCN(C(C)C)C2)n1 (stereo not drawn) the screen gave Leishmania in macrophages: 0.205%; PfKRS1: 0.3175%; LiHisRS: 0%.

Cn1cnc2c1C(COCC1CCOCC1)CN(C(=O)C1CC=CC1)C2 (stereo not drawn) read PfKRS1: 1.509%; LiHisRS: 20.59%. Result for CCn1cc2c(n1)CN(Cc1ccc(F)cc1)CC2COCC1CC1 (stereo not drawn) was PfKRS1: -7.872%; LiHisRS: 11.76%. O=C(COc1ccc2c(c1)CCC2)N1CCOCC1c1ncon1 (stereo not drawn) read Leishmania in macrophages: -4.426%; PfKRS1: 8.79%; LiHisRS: 14.29%. For Cc1ccc2oc(SCC(=O)NC(C)(C)C)nc2n1 the result was Leishmania in macrophages: 15.68% and -13.8%; PfKRS1: 0.7664%; LiHisRS: -5.263%. With Cc1cc(C)n(-c2cncc(N3CCN(C(=O)C(C)C)CC3)n2)n1 the screen gave Leishmania in macrophages: 35.42%; PfKRS1: 10.68%; LiHisRS: 9.821%.

With COc1ccc(OC)c(C(O)CNC(=O)Nc2cccnc2OC)c1 (stereo not drawn) the screen gave Leishmania in macrophages: -9.203%; PfKRS1: 1.052%; LiHisRS: 11.86%. Result for Cc1ncc(C)c(N2CCC(Cc3ccc(Cl)cc3)(C(=O)O)CC2)n1 was Leishmania in macrophages: 21.71%; PfKRS1: 3.895%; LiHisRS: 16.13%. Result for Cc1n[nH]c(C)c1-c1cc(-c2cccc(O)c2)nc(N)c1C#N was Leishmania in macrophages: -48.13%; PfKRS1: 0.8237%; LiHisRS: 23.08%.

Repeated from the top, 3 entries:

Compound	Leishmania in macrophages	PfKRS1	LiHisRS
COCCN1CC(C(=O)N(C)Cc2csc(C)n2)CC1=O (stereo not drawn)	-3.6	-1.029	-10.67
CC(C)(C)c1ncc(CNCC2CCCn3ccnc32)s1 (stereo not drawn)	2.791	-0.2719	10.53
Fc1cccc(O[C@@H]2C[C@H]3CN(Cc4ccccn4)CCN3C2)c1	-	-2.304	1.01

Measurements from “University of Dundee, Small-Polar-MMV Screening Library” (2021), ChEMBL document CHEMBL3988442.